Source: PMC10702356
These are yes or no findings as the source states them, for the method shown. In cells and extracts the contact can be indirect. A result given as binding can be weak or reduced; the word gives no strength. Where a sequence is shown, tags or fusion partners need not be part of it.

Biological target: T1, HopD1 fused to the epitope haemagglutinin (HopD1-HA) (Pseudomonas syringae pv. tomato DC3000) (UniProt Q888Y8)
T1 sequence: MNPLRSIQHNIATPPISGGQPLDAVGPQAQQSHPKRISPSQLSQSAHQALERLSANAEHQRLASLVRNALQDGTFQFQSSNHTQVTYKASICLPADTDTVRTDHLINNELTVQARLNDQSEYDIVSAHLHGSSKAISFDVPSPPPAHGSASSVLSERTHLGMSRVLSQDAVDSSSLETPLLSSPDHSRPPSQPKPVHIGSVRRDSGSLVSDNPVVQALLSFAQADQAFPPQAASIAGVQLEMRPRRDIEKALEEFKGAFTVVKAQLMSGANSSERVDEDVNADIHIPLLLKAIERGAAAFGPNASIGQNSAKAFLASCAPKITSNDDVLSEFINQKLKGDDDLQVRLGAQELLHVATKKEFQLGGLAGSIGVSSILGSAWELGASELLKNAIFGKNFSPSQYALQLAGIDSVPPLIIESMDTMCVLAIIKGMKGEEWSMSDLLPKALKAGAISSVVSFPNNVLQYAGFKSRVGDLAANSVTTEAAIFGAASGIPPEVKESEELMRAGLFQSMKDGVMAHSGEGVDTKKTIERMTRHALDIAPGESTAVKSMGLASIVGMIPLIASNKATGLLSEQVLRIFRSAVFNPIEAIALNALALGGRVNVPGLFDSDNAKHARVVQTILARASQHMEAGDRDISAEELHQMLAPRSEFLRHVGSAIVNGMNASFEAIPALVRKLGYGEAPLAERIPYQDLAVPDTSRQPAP
Experiment: co-IP

## AtNHR2B fused to the green fluorescent protein (AtNHR2B-GFP) (Arabidopsis thaliana)
  binding: binds
